Experimental data taken from patent US20140018288A1, “X-DING-CD4 Peptide” (priority 2012, published 2014).
Some entries share one result that the patent states for a list of compounds.

Test: Acute toxicity after intraperitoneal injection in mice
Assay type: in vivo, mice (B6/SJL)
Settings: up to 50 μg, weighed up to 7 days
Experimental: In the animal tests, eight-week old wild-type mice (B6/SJL) with both genders in each test group were injected intraperitoneally with 1-50 μg of rX-DING-CD4^pep or 50 μg nX-DING-CD4. The nX-DING-CD4 refers to the native form of X-DING-CD4 protein that was purified through IXC chromatography from the extracellular compartment of HIV-1 resistant T-cells. The rX-DING-CD4^pep refers to therapeutic X-DING-CD4 peptide that was expressed in E. coli and purified through Ni-affinity column. Toxicity was assessed by obvious symptoms including diarrhea, ruffled fur, abnormal gait, or loss of more than 10% weight. Animals were weighted before injection and then observed every hour for the first 10 hours after injection; then animals were weighted on 1, 3, 4 and 7 days after X-DING-CD4 administration. […] In its highest administered dose (50 μg—corresponding to 2 μg/G) we exceeded therapeutic dose blocking 95% of HIV promoter activity (by RSA assays) and 90% virus replication (by MAGI assays) (See FIGS. 2 & 3 in Example 2).

Molecule | variation in weight [%]
MADINGGGATLPQPLYQTSGVLTAGFAPYIGVGSGKGKLAFLNNDYSQFGTGTKNVHWAGSDSKLTSTELSTYASTKQAAWGKLIQVPSVATSVAIPFNKAGSNAVDLSVDQLCGVFSGRITTWNQ (protein, listed as Homo sapiens) MADINGGGATLPQPLYQTSGVLTAGFAPYIGVGSGKGKLAFLNNDYSQFGTGTKNVHWAGSDSKLTSTELSTYASTKQAAWGKLIQVPSVATSVAIPFNKAGSNAVDLSVDQLCGVFSGRITTWNQ | ≤ 10
X-DING-CD4: native form of X-DING-CD4 protein purified from the extracellular compartment of HIV-1 resistant T-cells, about 40 kDa (protein, listed as Homo sapiens) MADINGGGATLPQPLYQTSGVLTAGFAPYIGVGSGKGKLAFLNNDYSQFGTGTKNVHWAGSDSKLTSTELSTYASTKQAAWGKLIQVPSVATSVAIPFNKAGSNAVDLSVDQLCGVFSGRITTWNQLPATGRTGNIVVVYRNEASGTTELFTRFLTAKCVNESKKFVVTTNFADSFGVPAGAVPAVTSQGVMTKLNAGDGRITYMSPDYAAPTLAGLDDATKVAKVAGVSPAPDNVSAAIAAVPVPAAANVALQNAWVPVFAAAADANDPSVVPYPSTGFPILGFTNLIFSQ | ≤ 10
